# Laboratory results: publication doi:10.1101/2025.08.12.669848
# By UniProt entry, the sequences of proteins in these tests, tags left out.
# UniProt Q13263, whole entry: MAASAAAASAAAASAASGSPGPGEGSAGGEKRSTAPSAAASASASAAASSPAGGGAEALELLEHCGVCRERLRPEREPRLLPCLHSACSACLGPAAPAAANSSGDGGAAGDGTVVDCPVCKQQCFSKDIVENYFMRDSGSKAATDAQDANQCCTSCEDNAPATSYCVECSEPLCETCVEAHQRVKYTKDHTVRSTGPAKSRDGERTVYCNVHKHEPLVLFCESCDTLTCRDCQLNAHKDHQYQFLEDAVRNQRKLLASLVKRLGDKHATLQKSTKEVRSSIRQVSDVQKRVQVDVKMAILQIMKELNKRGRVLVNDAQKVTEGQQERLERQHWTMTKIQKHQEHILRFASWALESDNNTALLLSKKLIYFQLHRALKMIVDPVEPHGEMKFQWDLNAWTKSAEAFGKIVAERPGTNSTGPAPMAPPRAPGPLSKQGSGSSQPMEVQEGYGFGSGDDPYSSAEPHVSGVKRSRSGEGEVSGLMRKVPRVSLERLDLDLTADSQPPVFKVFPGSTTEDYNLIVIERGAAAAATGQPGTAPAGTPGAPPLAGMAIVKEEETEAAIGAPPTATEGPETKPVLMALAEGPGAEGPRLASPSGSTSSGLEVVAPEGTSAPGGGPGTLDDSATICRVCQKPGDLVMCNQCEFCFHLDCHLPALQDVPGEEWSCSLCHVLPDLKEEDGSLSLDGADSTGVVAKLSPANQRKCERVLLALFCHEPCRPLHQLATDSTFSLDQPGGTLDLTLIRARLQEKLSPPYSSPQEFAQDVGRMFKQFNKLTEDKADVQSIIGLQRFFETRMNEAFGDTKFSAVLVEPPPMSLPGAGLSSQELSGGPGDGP
# UniProt Q9HAU4, whole entry: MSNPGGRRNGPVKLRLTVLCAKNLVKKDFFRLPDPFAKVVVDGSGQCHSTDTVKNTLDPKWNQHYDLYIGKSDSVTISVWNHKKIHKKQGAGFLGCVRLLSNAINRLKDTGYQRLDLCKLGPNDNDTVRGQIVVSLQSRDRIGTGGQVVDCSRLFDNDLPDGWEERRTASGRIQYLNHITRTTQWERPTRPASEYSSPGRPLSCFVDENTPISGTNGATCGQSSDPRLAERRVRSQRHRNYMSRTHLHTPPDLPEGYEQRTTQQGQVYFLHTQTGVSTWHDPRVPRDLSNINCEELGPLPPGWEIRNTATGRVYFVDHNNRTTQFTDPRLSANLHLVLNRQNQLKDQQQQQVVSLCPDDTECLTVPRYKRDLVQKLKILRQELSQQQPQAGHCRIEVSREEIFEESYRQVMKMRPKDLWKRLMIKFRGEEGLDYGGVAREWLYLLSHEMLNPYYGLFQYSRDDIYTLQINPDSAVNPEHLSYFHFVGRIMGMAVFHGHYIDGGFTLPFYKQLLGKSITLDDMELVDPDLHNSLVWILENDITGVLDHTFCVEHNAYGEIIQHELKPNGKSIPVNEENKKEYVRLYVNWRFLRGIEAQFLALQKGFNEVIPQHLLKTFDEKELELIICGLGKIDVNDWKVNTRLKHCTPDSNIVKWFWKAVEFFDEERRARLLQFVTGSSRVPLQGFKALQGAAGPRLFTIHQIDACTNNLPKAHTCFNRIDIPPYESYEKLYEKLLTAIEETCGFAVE
# UniProt Q93009, whole entry: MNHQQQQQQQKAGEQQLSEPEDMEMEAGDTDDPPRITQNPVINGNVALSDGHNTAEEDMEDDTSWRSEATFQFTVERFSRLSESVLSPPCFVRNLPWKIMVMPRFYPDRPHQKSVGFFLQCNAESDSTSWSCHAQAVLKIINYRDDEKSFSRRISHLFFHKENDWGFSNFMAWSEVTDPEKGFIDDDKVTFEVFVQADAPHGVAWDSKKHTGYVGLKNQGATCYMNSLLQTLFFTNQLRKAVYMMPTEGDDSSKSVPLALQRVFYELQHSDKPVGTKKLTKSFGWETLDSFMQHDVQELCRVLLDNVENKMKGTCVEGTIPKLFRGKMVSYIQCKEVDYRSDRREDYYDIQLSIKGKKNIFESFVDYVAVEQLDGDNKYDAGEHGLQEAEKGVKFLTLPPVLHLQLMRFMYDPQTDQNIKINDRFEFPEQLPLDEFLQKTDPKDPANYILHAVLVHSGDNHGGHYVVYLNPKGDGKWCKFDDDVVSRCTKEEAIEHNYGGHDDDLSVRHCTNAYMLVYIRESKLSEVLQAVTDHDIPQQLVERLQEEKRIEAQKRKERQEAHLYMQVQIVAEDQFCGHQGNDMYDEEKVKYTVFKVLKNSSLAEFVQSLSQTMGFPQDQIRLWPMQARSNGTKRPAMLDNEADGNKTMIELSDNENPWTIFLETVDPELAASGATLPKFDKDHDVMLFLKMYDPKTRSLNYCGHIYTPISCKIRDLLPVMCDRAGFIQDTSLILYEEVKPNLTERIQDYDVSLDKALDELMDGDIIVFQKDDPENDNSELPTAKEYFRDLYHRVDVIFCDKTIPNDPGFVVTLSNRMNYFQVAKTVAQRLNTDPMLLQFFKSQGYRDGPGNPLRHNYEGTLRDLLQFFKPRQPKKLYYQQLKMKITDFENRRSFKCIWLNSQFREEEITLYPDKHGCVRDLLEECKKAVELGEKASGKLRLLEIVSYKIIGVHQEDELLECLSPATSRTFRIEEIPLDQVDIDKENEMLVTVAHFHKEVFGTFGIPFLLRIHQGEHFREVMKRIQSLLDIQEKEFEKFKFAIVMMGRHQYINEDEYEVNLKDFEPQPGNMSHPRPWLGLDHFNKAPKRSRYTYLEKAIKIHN
# No constants are given. Whether binding was seen depends on the method and setting. For some assays here: In cells and extracts the contact can be indirect. Some binding calls cover weakened binding; strength is not graded here.
# Assays:
# [1] = target: FLAG-KAP1 wild type (KRAB-associated protein 1), expressed in HEK-293T cells (human) (UniProt Q13263); assay: pull-down
# [2] = target: FLAG-KAP1 wild type (KRAB-associated protein 1), expressed in HEK-293T cells (human) (UniProt Q13263); assay: co-IP
# [3] = target: MYC-SMURF2 wild type (Smad Ubiquitin Regulatory Factor 2) (UniProt Q9HAU4); assay: co-IP
Substance,binding [1],binding [2],binding [3]
"His6-USP7, purified (from UniProt Q93009 1-1102) (enzyme)",binds,,
MYC-SMURF2 wild type (Smad Ubiquitin Regulatory Factor 2) (from UniProt Q9HAU4 1-748) (enzyme),,binds,
V5-tagged USP7 (V5-USP7) (from UniProt Q93009 1-1102) (enzyme),,binds,
endogenous USP7 (HAUSP) of HEK-293T cells (from UniProt Q93009 1-1102) (enzyme),,binds,binds
